Results: paper PMC4161973
These are yes or no findings as the source states them, for the method shown. In cells and extracts the contact can be indirect. A result given as binding can be weak or reduced; the word gives no strength. Where a sequence is shown, tags or fusion partners need not be part of it.

Sequences of proteins named here, by UniProt entry; tags and fusion partners are left off. A change or cut given only in a name is not applied to a line headed by its entry.
UniProt P39938: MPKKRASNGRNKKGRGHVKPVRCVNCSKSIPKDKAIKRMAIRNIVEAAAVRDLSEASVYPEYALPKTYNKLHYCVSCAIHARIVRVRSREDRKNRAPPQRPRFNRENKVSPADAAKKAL

Columns and labels:
[1] = target: T1, GST-tagged Nmd5 (S. cerevisiae) (UniProt P46970); test: pull-down; GST-importins immobilised on Glutathione Sepharose, incubated with E. coli lysate containing ∼4 µM eS26^FLAG (or its mutants, or GFP-eS26) in PBSKMT with competing E. coli lysates for 1 hr at 4°C; Coomassie Blue staining or Western; only the target purified
T1 sequence: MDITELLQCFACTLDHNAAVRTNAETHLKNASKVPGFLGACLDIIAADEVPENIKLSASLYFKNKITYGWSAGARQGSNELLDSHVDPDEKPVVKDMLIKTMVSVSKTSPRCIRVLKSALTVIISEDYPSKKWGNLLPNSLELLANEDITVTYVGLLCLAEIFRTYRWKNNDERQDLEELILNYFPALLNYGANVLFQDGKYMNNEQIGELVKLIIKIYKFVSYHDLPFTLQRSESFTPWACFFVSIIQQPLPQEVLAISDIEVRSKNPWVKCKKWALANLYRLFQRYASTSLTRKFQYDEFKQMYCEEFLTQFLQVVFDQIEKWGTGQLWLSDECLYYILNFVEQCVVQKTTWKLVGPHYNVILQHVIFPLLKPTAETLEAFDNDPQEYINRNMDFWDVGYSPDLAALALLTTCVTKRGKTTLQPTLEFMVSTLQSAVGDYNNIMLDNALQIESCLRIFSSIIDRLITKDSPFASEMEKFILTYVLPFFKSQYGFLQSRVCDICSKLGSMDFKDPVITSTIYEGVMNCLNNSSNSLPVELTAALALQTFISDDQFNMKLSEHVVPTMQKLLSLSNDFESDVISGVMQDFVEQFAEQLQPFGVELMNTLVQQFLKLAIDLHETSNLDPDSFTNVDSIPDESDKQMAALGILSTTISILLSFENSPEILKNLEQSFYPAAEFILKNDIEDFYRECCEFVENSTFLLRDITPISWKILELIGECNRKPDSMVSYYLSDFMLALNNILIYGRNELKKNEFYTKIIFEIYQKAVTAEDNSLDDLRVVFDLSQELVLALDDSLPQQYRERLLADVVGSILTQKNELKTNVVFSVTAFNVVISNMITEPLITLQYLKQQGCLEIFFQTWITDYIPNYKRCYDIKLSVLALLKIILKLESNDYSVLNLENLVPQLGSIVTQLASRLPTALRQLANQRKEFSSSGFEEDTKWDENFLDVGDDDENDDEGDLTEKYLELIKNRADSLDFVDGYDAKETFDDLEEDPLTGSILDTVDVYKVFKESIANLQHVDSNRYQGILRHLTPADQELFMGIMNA

[2] = target: T2, GST-Pse1 (S. cerevisiae) (UniProt P32337); test: as above
T2 sequence: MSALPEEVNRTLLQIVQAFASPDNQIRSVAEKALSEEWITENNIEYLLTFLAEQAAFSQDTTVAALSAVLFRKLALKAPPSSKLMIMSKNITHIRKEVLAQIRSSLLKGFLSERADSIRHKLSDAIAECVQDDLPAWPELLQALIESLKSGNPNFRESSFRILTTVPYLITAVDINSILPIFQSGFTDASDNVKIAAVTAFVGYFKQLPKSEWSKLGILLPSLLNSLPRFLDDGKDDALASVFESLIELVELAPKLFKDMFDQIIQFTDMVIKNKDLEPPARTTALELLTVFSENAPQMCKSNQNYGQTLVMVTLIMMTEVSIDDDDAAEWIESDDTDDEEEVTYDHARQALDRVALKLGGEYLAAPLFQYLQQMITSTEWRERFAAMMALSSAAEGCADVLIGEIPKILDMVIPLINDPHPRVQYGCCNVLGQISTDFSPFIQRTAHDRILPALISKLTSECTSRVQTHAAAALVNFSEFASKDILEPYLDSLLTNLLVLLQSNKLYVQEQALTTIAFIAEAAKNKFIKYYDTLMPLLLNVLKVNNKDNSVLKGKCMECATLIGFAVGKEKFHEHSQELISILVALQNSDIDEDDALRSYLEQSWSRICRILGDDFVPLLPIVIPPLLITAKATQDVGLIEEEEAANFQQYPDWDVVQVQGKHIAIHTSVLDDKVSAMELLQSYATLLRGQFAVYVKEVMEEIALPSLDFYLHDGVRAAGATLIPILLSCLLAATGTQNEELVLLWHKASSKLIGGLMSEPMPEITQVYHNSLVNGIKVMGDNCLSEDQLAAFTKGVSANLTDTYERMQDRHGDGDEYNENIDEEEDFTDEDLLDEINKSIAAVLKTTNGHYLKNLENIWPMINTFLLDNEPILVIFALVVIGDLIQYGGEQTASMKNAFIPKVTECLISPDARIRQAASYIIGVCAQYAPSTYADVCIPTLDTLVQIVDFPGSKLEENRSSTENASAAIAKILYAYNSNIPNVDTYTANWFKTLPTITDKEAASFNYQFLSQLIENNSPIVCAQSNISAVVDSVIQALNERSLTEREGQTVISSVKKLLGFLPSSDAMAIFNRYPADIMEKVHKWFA

binding [1]: binds weakly | binding [2]: binds
Substance: eS26^FLAG (from UniProt P39938)
